The other results are listed elsewhere or left out.
B1: il10ra_site1_normal_mot_8756ee2cf497b5429c717dfc0c0bcfd6_0001_000000186_0001_1_13_H_._HHH_b2_04770_af2_0001_0000600021_0000002_0 (protein)
chain: SSSSSSDEALRRVIELIRLAVQIEDEEELQEVLEEARELAEELGNDVLKWQVEYLLRNLTSSSSS
B2: il10ra_site1_normal_mot_HHH_b2_03425_000000200_0001_22_39_H_._HHH_b2_05523_af2_0001_0000100001_0000002_0 (protein)
chain: SSSSDERREEAYELLRELIEAVREGNEELFEKIAEEIKELIEELGSELLRFVLEHLEKDLGSSSS
B3: il10ra_site1_sap_29_mot_HHH_b1_05377_000000047_0001_42_55_H_._HHH_b1_07220_0001_0000200022_0000001_0_0001 (protein)
chain: SSSSSDENEEAMELLREASELAQKGDREKAEEVLEEALELAERLGNMVLQWSIRYLLERLSSSSS
B4: il10ra_site1_normal_mot_HHH_b2_08186_000000021_0001_43_56_H_._HHH_b1_07769_0001_0000300019_0000001_0 (protein)
chain: SSSSSNEEEIRELLEEVERLLEEGDPEEALQLLLRAVRLALELGNAELLQLIWRLLKEVASSSSS
B5: il10ra_site1_normal_mot_HHH_b2_00273_000000062_0001_23_39_H_._HHH_b1_04796_af2_0001_0000100002_0000001_1 (protein)
chain: SSSSSEEELKELLEEVEELIEKNDPERALRAIQEALRFAFRLSDEEALRRLWELAKLVAEASSSS
B6: il10ra_site1_normal_mot_HHH_b1_00999_000000080_0001_41_55_H_._HHH_b1_02031_af2_0001_0000400012_0000002_0 (protein)
chain: SSSSSDEEEKEVEELLEEAKRIPDPRERNEILLEALRIALHLGNEELLQLVWRVVKELGSSSSSS
B7: il10ra_site1_normal_mot_ems_3hM_3590_af2_000000053_0001_1_20_H_._851e9514b01d94382d7da6108aa17113_0001_0001_0000300010_0000001_0 (protein)
chain: SQERALENAVKALLQGNPLAERSLTWAVARELNIPPEEAQELIEEVRELAKTDPEKAEELLKEIL
B8: il10ra_site1_sap_17_mot_HHH_b1_06914_000000280_0001_1_18_H_._HHH_b2_02639_0001_0000100004_0000002_0_0001 (protein)
chain: SNEEELIFQIVIKAYRELLKAGVSHEEIAKANAELFEARRRGVSAEEVEEIAEEIVREAKEESSS
B9: il10ra_site1_sap_20_mot_9bc32e39fd96e64286323717145257bc_0001_000000045_0001_37_51_H_._HHH_b1_01025_af2_0001_0000400005_0000001_0_0001 (protein)
chain: SSSSDEEEEELRELLERVRELLERGDPRRAAEVTQELLRLIFQLRDHEALEELDRLFQKEASSSS
B10: il10ra_site1_sap_27_mot_HHH_b2_07873_af2_000000172_0001_1_19_H_._HHH_b2_04598_0001_0000100010_0000001_0_0001 (protein)
chain: SSSSSDEEEERVEELIEELRKIEDPERAARLVIEALRLIFRLSDAELLEELWRAFKEVINSSSSS

Target: il10ra, Q13651
Experiment: yeast display titration

Apparent Kd, inactive:
B1 no binding seen
B2 no binding seen
B3 no binding seen
B4 no binding seen
B5 no binding seen
B6 no binding seen
B7 no binding seen
B8 no binding seen
B9 no binding seen
B10 no binding seen

2 entries picked at random from the list so far, as already listed:
Apparent Kd, inactive:
B1 no binding seen
B6 no binding seen

From publication PMC10163288
